Results of single-concentration screens

Measurements from “University of Dundee, Small-Polar-MMV Screening Library” (2021), ChEMBL document CHEMBL3988442.

Mtb glucose medium: 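Phenotypic screen: M. tuberculosis growth, glucose 7H9 medium, 3 days; the read-out is not stated. Tested at 50 µM. Higher reads as more growth inhibition (inferred: compounds with an IC50 in retests scored well above the rest). Size under these conditions: about 69,000 compounds, about 760 of them at 50% or above in at least one test.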
Mtb cholesterol medium: 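Growth of Mycobacterium tuberculosis over 4 days (cholesterol / DPPC medium with tyloxapol); the read-out is not stated. Concentration: 50 µM. Higher reads as more growth inhibition (inferred: compounds with an IC50 in retests scored well above the rest). Size under these conditions: about 69,000 compounds, about 370 of them at 50% or above in at least one test.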

Each number is a percent effect as filed. The record does not define 0% and 100%; most values in the screen are far below 50% and negative numbers occur (in some assays of this library far below -100). The compounds are a random part of those screened. Two or more numbers in one place are separate tests of the same structure; such repeats can differ widely.

With O=C(Nc1ccnc(OC2CCOC2)c1)c1ccc(F)cc1Cl (configuration not stated) the screen gave Mtb glucose medium: 7.331% & 6.791%; Mtb cholesterol medium: 7.74%. With Cc1cnc(NC(=O)NCCOc2ncccc2Cl)s1 the screen gave Mtb glucose medium: -2.763%; Mtb cholesterol medium: 0.7342% & -8.161%. Result for CNC(=O)[C@@H]1CN(C(=O)CCOC)C[C@H]1c1ccnc(N2CCCC2)n1.Cl was Mtb glucose medium: -0.7049%; Mtb cholesterol medium: -5.656% & 0.3012%. O=C(CCC1CCCN(C(=O)CCN2CCCCO2)C1)N1CCCC1 (configuration not stated) read Mtb glucose medium: 7.429% & -1.566%; Mtb cholesterol medium: 7.886%. With Cc1cc(C)n(CC2CCCN2C(=O)c2cccc3[nH]ncc23)n1 (configuration not stated) the screen gave Mtb glucose medium: 13.49%; Mtb cholesterol medium: -0.09087%. COC(=O)CNC(=O)CCCn1cnc2ccccc2c1=O read Mtb glucose medium: -8.282%; Mtb cholesterol medium: -4.241%. For CC(C)CCN1CCCC12Cc1ccccc1CNC2=O (configuration not stated) the result was Mtb glucose medium: 20.04%; Mtb cholesterol medium: 3.386%. CC(C)c1cc(N2CCC[C@H](N)C2)n2nccc2n1 gave Mtb glucose medium: 2.514%; Mtb cholesterol medium: 1.071%.

Result for COCC1c2nnn(CC3CC3)c2CCN1Cc1ccncc1.O=C(O)C(F)(F)F.O=C(O)C(F)(F)F (configuration not stated) was Mtb glucose medium: -12.86%; Mtb cholesterol medium: -13.36%. Result for Cc1cn(CC(=O)NC2CCC3(CC2)OCCO3)c2ccccc12 was Mtb glucose medium: -6.417%; Mtb cholesterol medium: -32.97%. Cl.Cl.O=C(NCc1cncc2c1CCN(Cc1cccc(F)c1)C2)C1CC1 gave Mtb glucose medium: -8.055%; Mtb cholesterol medium: -25.54%. Result for Cc1noc(CCCNS(=O)(=O)N2CCCC2c2ccco2)n1 (configuration not stated) was Mtb glucose medium: -4.864% & 2.68%; Mtb cholesterol medium: -19.89% & -1.62%. Result for O=C(NCC1CCN(C(=O)c2ccoc2)CC1)c1ccccc1Br was Mtb glucose medium: -14.22% & -4.911%; Mtb cholesterol medium: -18.24%. Result for c1csc(-c2nc(CN3CCCC3Cn3cncn3)co2)c1 (configuration not stated) was Mtb glucose medium: 5.812% & -12.15%; Mtb cholesterol medium: -4.446%. Result for Cc1cccc(NC(=O)NC2CCN(C3CCOC3)CC2)c1 (configuration not stated) was Mtb glucose medium: -5.047% & 7.038%; Mtb cholesterol medium: -0.201%. Cc1ccc(CC(=O)N2Cc3nccn3CC(CN(C)C)C2)cc1.O=C(O)C(F)(F)F (configuration not stated) gave Mtb glucose medium: 18.83%; Mtb cholesterol medium: -10.29%.

Cc1cc(-c2cnc(N3CCNC(=O)C3)nc2-c2ccoc2C)on1 gave Mtb glucose medium: -17.48%; Mtb cholesterol medium: -11.39%. Result for N#Cc1cccnc1N1CCC(OCCc2ccccc2)CC1 was Mtb glucose medium: 15.25%; Mtb cholesterol medium: -1.742%. Result for CCn1c(SCC(N)=O)nnc1-c1csc2c1CCCC2 was Mtb glucose medium: -5.57%; Mtb cholesterol medium: -39.91%. With O=C(CCc1ccccn1)N1CCSC2(CCCCC2)C1 the screen gave Mtb glucose medium: 54.06%; Mtb cholesterol medium: 35.74%. For CCc1cc(N2CCC(n3cc(C(=O)NCC(C)C)nn3)CC2)ncn1 the result was Mtb glucose medium: 31.17%; Mtb cholesterol medium: 3.983%. Result for CC(=O)N1CCCC2(CN(Cc3ccncc3)CCO2)C1 (configuration not stated) was Mtb glucose medium: 9.203% & 4.609%; Mtb cholesterol medium: -5.645%. COc1ccc(-n2ccnc2-c2cnc(C(C)C)nc2)cc1C(=O)O gave Mtb glucose medium: 43.05%; Mtb cholesterol medium: -20.41%. For Cc1cc(C)n(CC2CCCN2C(=O)c2ccc3c(c2)COC3)n1 (configuration not stated) the result was Mtb glucose medium: 7.392%; Mtb cholesterol medium: 10.59%.

With Cn1cnnc1C1CCCN(C(=O)c2cc3ccccc3[nH]2)C1 (configuration not stated) the screen gave Mtb glucose medium: -12.45%; Mtb cholesterol medium: 9.282%. CCS(=O)(=O)Nc1ccc2c(c1)C1(CCOCC1)CN2C.O=C(O)C(F)(F)F gave Mtb glucose medium: 6.68%; Mtb cholesterol medium: 9.249%. For CC(C)N1CC(C(=O)NC(C)(C)CNC(=O)OC(C)(C)C)CC1=O (configuration not stated) the result was Mtb glucose medium: 1.286% & 30.85%; Mtb cholesterol medium: 8.155%. For CCNc1ncnc2c1CN(C1CCCNCC1)C(=O)CN2C (configuration not stated) the result was Mtb glucose medium: -16.99%; Mtb cholesterol medium: -22.44%. With O=C(c1cc(-c2cn[nH]c2)nc2ccc(F)cc12)N1CCSCC1 the screen gave Mtb glucose medium: 20.62% & 9.788%; Mtb cholesterol medium: -5.655%. Cn1c(CN2CCOC(Cn3cncn3)C2)nc2ccccc21 (configuration not stated) read Mtb glucose medium: -0.6556% & -9.535%; Mtb cholesterol medium: -18.07%. O=C(NCC(=O)N1CCC2(CC1)OCCO2)c1ccoc1 read Mtb glucose medium: 2.922%; Mtb cholesterol medium: -9.567%. For Cc1[nH]c(=O)[nH]c(=O)c1CC(=O)N1CCCN(CC2CC2)C(C(C)C)C1 (configuration not stated) the result was Mtb glucose medium: 44.37%; Mtb cholesterol medium: -1.105%.

CCS(=O)(=O)CCSc1ccc(Br)cc1 gave Mtb glucose medium: 12.28%; Mtb cholesterol medium: 9.457% & 3.622%. Result for Cc1cccc(NS(=O)(=O)c2cnn(C)c2)c1C#N was Mtb glucose medium: 14.84%; Mtb cholesterol medium: -22.6%. Result for Cc1cc(C)c(C#N)c(NCCn2cnnc2C(C)C)n1 was Mtb glucose medium: -1.564%; Mtb cholesterol medium: 9.554%. CCc1ncnc2c1CCN(CC(=O)N(C)C)CC2.O=C(O)C(F)(F)F gave Mtb glucose medium: -4.364%; Mtb cholesterol medium: -9.503%. CCCc1nnc2sc(-c3cc(C(C)C)n[nH]3)nn12 gave Mtb glucose medium: -23.21%; Mtb cholesterol medium: 3.702%. Cc1cnn(CCNCc2nccn2Cc2ccccc2)c1 gave Mtb glucose medium: 41.29%; Mtb cholesterol medium: 21.1%. [H][C@]12CC[C@]([H])(CN(Cc3ccncc3)C1)N(Cc1cccc(O)c1)C2 gave Mtb glucose medium: 11.07% & 20.4%; Mtb cholesterol medium: 10.93% & 4.293%. O=C(O)C(F)(F)F.[H][C@@]12CCN(Cc3ccc(F)cc3)CC[C@]1([H])[C@@H](COC)CNC2=O gave Mtb glucose medium: -16.27% & -1.51%; Mtb cholesterol medium: -1.077%.

OCCOc1cc(F)ccc1NCc1nc(-c2ccoc2)no1 gave Mtb glucose medium: -5.194%; Mtb cholesterol medium: 9.048%. Cl.O=C(NCCn1nc(C2CCNC2)c2cccnc21)C1CC1 (configuration not stated) gave Mtb glucose medium: 7.48%; Mtb cholesterol medium: -6.164%. For COCc1cc(NCC(F)(F)F)n2nccc2n1 the result was Mtb glucose medium: -26.42%; Mtb cholesterol medium: -18.43%. Cc1cc(C)n(CC(=O)NCc2ccccn2)n1 read Mtb glucose medium: 0.1704% & -37.15%; Mtb cholesterol medium: -13.48%. With Cc1nnc2n1CCN(c1nc3ccccc3o1)C2 the screen gave Mtb glucose medium: 12.98%; Mtb cholesterol medium: 13.22%. For O=C(c1cccc2cn[nH]c12)N1CCCC1c1noc(C2CC2)n1 (configuration not stated) the result was Mtb glucose medium: 8.359%; Mtb cholesterol medium: -4.288%. Cc1nnc(CN(C)CC(=O)NCCc2ccc(F)cc2)n1C read Mtb glucose medium: -14.38%; Mtb cholesterol medium: -14.21%.

For reference, 6 entries once more:

Compound,Mtb glucose medium,Mtb cholesterol medium
O=C(CCC1CCCN(C(=O)CCN2CCCCO2)C1)N1CCCC1 (configuration not stated),7.429% & -1.566%,7.886%
Cl.Cl.O=C(NCc1cncc2c1CCN(Cc1cccc(F)c1)C2)C1CC1,-8.055%,-25.54%
c1csc(-c2nc(CN3CCCC3Cn3cncn3)co2)c1 (configuration not stated),5.812% & -12.15%,-4.446%
Cc1nnc2n1CCN(c1nc3ccccc3o1)C2,12.98%,13.22%
Cc1cc(C)n(CC2CCCN2C(=O)c2cccc3[nH]ncc23)n1 (configuration not stated),13.49%,-0.09087%
CC(C)CCN1CCCC12Cc1ccccc1CNC2=O (configuration not stated),20.04%,3.386%